According to PubChem BioAssay AID2685 (National Center for Advancing Translational Sciences (NCATS), 2010):
Out of some 320,000 compounds screened, about 2,100 (0.66%) were called active. The inconclusive results got no clear call from the source; some entries with a clear call stand among them for comparison. The call rests on the fitted dose curve; in most records, active means well fitted inhibition curve with a large enough effect in the signal ratio, with a control signal flat (not every such curve was filed as active); inconclusive means small, poorly fitted or top-dose-only effect, or effect the other way, or a change in a side signal; inactive means flat fitted curve, though single readings scatter; the % refers to the signal ratio. Where the call is inconclusive, the potency comes from a doubtful curve fit.

test: qHTS Assay for Lipid Storage Modulators in Drosophila S3 Cells; details: BODIPY lipid droplet fluorescence, 18-24 h, cells fed with added oleic acid; lipid storage change, negative = inhibition: at 46.1 µM (top of the series) unless noted
Outline: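 Laser-scanning cytometry quantifies lipid droplet accumulation (500–530 nm total intensity; droplet/cell object ratio) in oleic acid-fed (400 uM added) Drosophila S3 cells treated with a concentration series. 20 uM Triacsin C defined 100% inhibition.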
On the % scale 0 is the no-effect control and ±100 the full control effect; potency means the concentration at half of the fitted maximal effect.

Q: For Nc1cc(=O)[nH]c(SCC(=O)Nc2cccnc2Cl)n1, which Potency is on record?
A: inconclusive: 0.58 µM [falling, single point]

Q: Which lipid storage change, negative = inhibition does the source give for CC(C)c1cc(CNC(=O)CCc2nnc(CCCCc3ccccc3)o2)on1 here?
A: inconclusive: -16.1%

Q: For CN(C)S(=O)(=O)c1ccc(NC(=O)N2CCOCC2)cc1, which lipid storage change, negative = inhibition is on record?
A: inconclusive: -16.9%

Q: With O=C(Cc1ccccc1)Nc1cc(Cl)ccc1Sc1ccccc1 as the compound, how does the Potency read?
A: inconclusive: 18.4 µM [activator, single point]

Q: With COCCn1c(=S)[nH]c2cc(C(=O)NCCc3ccc(OC)c(OC)c3)ccc2c1=O as the compound, how does the lipid storage change, negative = inhibition read?
A: inconclusive: 37.7%

Q: With COC(=O)c1cn(C(=O)c2cc(OC)cc(OC)c2)c2ccccc12 as the compound, how does the lipid storage change, negative = inhibition read?
A: inconclusive: 125%

Q: Which Potency does the source give for CCOC(=O)c1ccc(NC(=O)CN2C(=O)CSC(C)C2=O)cc1 (stereo unspecified) here?
A: inconclusive: 14.6 µM [activator, single point]

Q: Which Potency does the source give for CS(=O)(=O)N(CC(=O)O)Cc1cccc(CN(CC(=O)O)S(C)(=O)=O)c1 here?
A: inconclusive: 3.66 µM [falling, single point]

Q: With CCC1CCC(C(=O)NC(C(=O)NCCN2CCOCC2)C(C)C)CC1 (stereo unspecified) as the compound, how does the lipid storage change, negative = inhibition read?
A: inconclusive: 170%

Q: With CCOc1ccc2nc(N(Cc3ccccc3)C(=O)CCNC(C)=O)sc2c1 as the compound, how does the Potency read?
A: inconclusive: 0.082 µM [activator, full curve, poor fit]

Q: For CC(C)(C)C(=O)NC(=S)Nc1ccccc1C(N)=O, which Potency is on record?
A: inconclusive: 23.1 µM [activator, single point]

Q: For CCOC(=O)c1sc2nc(C)nc(NCc3ccc(F)cc3)c2c1C, which Potency is on record?
A: inconclusive: 2.91 µM [activator, partial curve]

Q: Which Potency does the source give for Cc1cc(F)ccc1S(=O)(=O)Nc1ccccc1C(=O)Nc1ncn[nH]1 here?
A: inconclusive: 6.51 µM [activator, single point]

Q: For Cc1ccc(NS(=O)(=O)c2cc3[nH]c(=O)c(=O)[nH]c3cc2C)c(C)c1, which lipid storage change, negative = inhibition is on record?
A: inconclusive: 8.11%

Q: For Cc1cc(=O)[nH]c(N/N=C/c2c(C)oc3ccccc23)n1, which lipid storage change, negative = inhibition is on record?
A: inconclusive: 34.6%

Q: With COc1cc2c(cc1NC(=O)c1cccc(Br)c1)CCCC2 as the compound, how does the lipid storage change, negative = inhibition read?
A: inconclusive: -125%

Q: With COc1ccc(CC(=O)NC2=NCCS2)cc1 as the compound, how does the lipid storage change, negative = inhibition read?
A: inconclusive: -7.1%

Q: Which lipid storage change, negative = inhibition does the source give for CC(C)OP(=O)(c1ccc(N(C)C)cc1)C(O)c1ccccc1 (stereo unspecified) here?
A: inconclusive: -5.32%

Q: For Cc1ccccc1Nc1nnc(SCC(=O)c2cc3ccccc3o2)s1, which lipid storage change, negative = inhibition is on record?
A: inconclusive: 29%

Q: For CCCC(C)NC(=O)c1ccccc1SC (stereo unspecified), which Potency is on record?
A: inconclusive: 0.651 µM [falling, full curve]

Q: With Cc1nnc(SCC(=O)NC(C)(C)C)n1C1CCCCC1 as the compound, how does the Potency read?
A: inconclusive: 0.184 µM [falling, full curve, poor fit]

Q: Which lipid storage change, negative = inhibition does the source give for O=C(NC1CCN(Cc2ccccc2)CC1)c1ccc(N2CC3CC(C2)c2cccc(=O)n2C3)c([N+](=O)[O-])c1 (stereo unspecified) here?
A: inconclusive: 2.62%

Q: For CCc1cccc(NC(=O)C2CCCN(S(=O)(=O)c3c(C)[nH]c(=O)[nH]c3=O)C2)c1 (stereo unspecified), which Potency is on record?
A: inconclusive: 29.1 µM [falling, single point]

Q: Which lipid storage change, negative = inhibition does the source give for CC(O)Cc1nsc(NC(=O)c2ccc(Br)o2)n1 (stereo unspecified) here?
A: inconclusive: -35.1%

Q: For Cc1ccc(SC2=C(C(=O)O)CCCC2)cc1, which Potency is on record?
A: inconclusive: 11.6 µM [activator, partial curve, poor fit]

Q: For C/C=C(\CS(=O)(=O)c1ccccc1)S(=O)(=O)c1ccccc1, which Potency is on record?
A: active: 5.17 µM

Q: Which lipid storage change, negative = inhibition does the source give for Cc1ccc(Cn2ccc(NC(=O)c3cc(C4CC4)on3)n2)cc1 here?
A: inconclusive: 13.7%

Q: With O=C(COC(=O)c1cc2ccccc2oc1=O)c1cccc([N+](=O)[O-])c1 as the compound, how does the lipid storage change, negative = inhibition read?
A: inconclusive: 71.1%

Q: With CC(=O)/C(=N\Nc1ccccc1)Sc1cccc2cccnc12 as the compound, how does the Potency read?
A: inconclusive: 10.3 µM [activator, partial curve]

Q: With Cc1ccc(C)n1-c1nnc(N2CCC(C(=O)NCCCN3CC(C)CC(C)C3)CC2)s1 (stereo unspecified) as the compound, how does the Potency read?
A: inconclusive: 3.66 µM [falling, full curve, poor fit]

Q: For COc1ccc(N=C2SC(CC(=O)Nc3ccccc3OC)C(=O)N2Cc2ccco2)cc1 (stereo unspecified), which Potency is on record?
A: inconclusive: 0.164 µM [rising, full curve, poor fit]

Q: For Cc1cc(C(=O)Oc2ccccc2C(=O)O)c(C)o1, which Potency is on record?
A: inconclusive: 1.3 µM [falling, full curve]

Q: For CCc1ccccc1N(C(=O)c1snc(C(N)=O)c1N)C(C(=O)NCC1CCCO1)c1ccc(OC)c(OC)c1 (stereo unspecified), which lipid storage change, negative = inhibition is on record?
A: inconclusive: -1.41%

Q: For Cc1ccc(CC(=O)NCCN2CCOCC2)cc1, which lipid storage change, negative = inhibition is on record?
A: inconclusive: 230%

Q: With CCOc1ccccc1N(C(=O)c1snc(C(N)=O)c1N)C(C(=O)NC1CCCC1)c1ccco1 (stereo unspecified) as the compound, how does the lipid storage change, negative = inhibition read?
A: inconclusive: 24%

Q: For OC(CCN1CCCCC1)(c1ccccc1)C1CCCCC1 (stereo unspecified), which lipid storage change, negative = inhibition is on record?
A: inconclusive: -2.93%

Q: Which lipid storage change, negative = inhibition does the source give for COc1ccccc1NC(=O)COC(=O)CCS(=O)(=O)c1ccc(C)cc1 here?
A: inconclusive: -13.1%

Q: With O=C(COC(=O)CNC(=O)c1ccc(Cl)cc1Cl)NC(=O)NCc1ccccc1 as the compound, how does the lipid storage change, negative = inhibition read?
A: inconclusive

Q: Which lipid storage change, negative = inhibition does the source give for Cc1cccc(NC(=O)Nc2nnc(N3CCCCC3C)s2)c1C (stereo unspecified) here?
A: inconclusive: 98.2%

Q: With COc1ccccc1NC(=O)Nc1ccc(Cc2ccncc2)cc1 as the compound, how does the lipid storage change, negative = inhibition read?
A: inconclusive: -46.9% [cytotoxic] [at 0.00295 µM]

Q: With Cc1cccc(NC(=O)NCC(c2ccco2)N2CCCCC2)c1 (stereo unspecified) as the compound, how does the Potency read?
A: inconclusive: 1.64 µM [falling, partial curve, poor fit]

Q: For O=C(Nc1cc(Cl)ccc1-n1cncn1)c1cncc(Br)c1, which Potency is on record?
A: inconclusive: 20.6 µM [rising, single point]

Q: For Cc1onc(-c2c(F)cccc2Cl)c1C(=O)Nc1cccc(Cn2cccn2)c1, which Potency is on record?
A: inconclusive: 16.4 µM [activator, partial curve, poor fit]

Q: With COc1ccccc1CC(=O)Nc1cc(C)ccn1 as the compound, how does the lipid storage change, negative = inhibition read?
A: inconclusive: 54.7%

Q: With Cc1ccc(-c2c(C)n([O-])c3c([n+]2=O)CCC3)o1 as the compound, how does the Potency read?
A: inconclusive: 0.517 µM [falling, full curve]

Q: With O=C(CCc1ccc(S(=O)(=O)N2CCOCC2)cc1)Nc1ccc2c(c1)OCCO2 as the compound, how does the lipid storage change, negative = inhibition read?
A: inconclusive: -9.91%

Q: Which lipid storage change, negative = inhibition does the source give for Cc1ccc(Cl)cc1N=C(N)N=C(N)N here?
A: inconclusive: 96.5%

Q: For Cc1ccccc1N/N=C1\CCCNC1=O, which lipid storage change, negative = inhibition is on record?
A: inconclusive: -36%

Q: For O=c1oc2ccccc2c(Nc2ccccc2)c1CN1CCCCC1, which lipid storage change, negative = inhibition is on record?
A: inconclusive: 42.5%

Q: With COc1cccc(C(=O)Nc2ccc(S(=O)(=O)N3CCCCC3)cc2)c1OC as the compound, how does the Potency read?
A: inconclusive: 18.4 µM [falling, partial curve, poor fit]

Q: With COc1cccc(C2CC(c3cccc(Br)c3)n3ncnc3N2)c1 (stereo unspecified) as the compound, how does the lipid storage change, negative = inhibition read?
A: inconclusive: 34.2%

Q: With CC(C)(C)NC(=O)CN(Cc1cccs1)C(=O)CNS(=O)(=O)c1ccccc1 as the compound, how does the lipid storage change, negative = inhibition read?
A: inconclusive: 0.789%

Q: Which lipid storage change, negative = inhibition does the source give for Cn1nnc(NC(=S)NC(=O)c2cc3ccccc3o2)n1 here?
A: inconclusive: 21%

Q: With CNS(=O)(=O)c1cn(CC(=O)NCc2cccc(OC)c2)cc1S(=O)(=O)NC as the compound, how does the lipid storage change, negative = inhibition read?
A: inconclusive: 35.2%

Q: For O=C(Nc1ccccc1)N(C1=NCCCCS1)c1ccccc1, which Potency is on record?
A: inconclusive: 2.06 µM [falling, partial curve, poor fit]

Q: Which lipid storage change, negative = inhibition does the source give for O=C(C(Sc1ccccc1)c1ccccc1)N1CCN(c2ccccc2F)CC1 (stereo unspecified) here?
A: inconclusive: -24.1%

Q: Which lipid storage change, negative = inhibition does the source give for COC(=O)C1C(=O)C2=C(CC1C)NC(=O)CC2c1cccc(C)c1 (stereo unspecified) here?
A: inconclusive: 0.641%

Q: With CC1CCCN(C(=O)c2cccc(S(=O)(=O)N3CCCC3)c2)C1 (stereo unspecified) as the compound, how does the lipid storage change, negative = inhibition read?
A: inconclusive: 25.2%

Q: For CCOC(=O)C1CCN(C(=S)Nc2ccc(C)cc2)CC1, which lipid storage change, negative = inhibition is on record?
A: inconclusive: -10.8%

Q: With N#CC1CCN(C(=O)c2ccc3c(Cl)c4c(nc3c2)CCCC4)CC1 as the compound, how does the Potency read?
A: inconclusive: 29.1 µM [falling, single point]

Q: For CC(=O)c1c(C)nc2ccc(Br)cc2c1C(=O)O, which lipid storage change, negative = inhibition is on record?
A: inconclusive: -20.8%

Q: Which lipid storage change, negative = inhibition does the source give for O=[N+]([O-])c1cc(C(F)(F)F)ccc1Cl here?
A: inconclusive: -30.8%

Q: For C=CCn1c(=O)c(C(=O)Nc2ccccc2OC)c(O)c2ccccc21, which Potency is on record?
A: inconclusive: 6.51 µM [rising, single point]

Q: For C[C@@H]1CN(C(=O)c2nc3ccc(Cl)cn3c2CN[C@H]2CCCCNC2=O)C[C@H](C)O1, which lipid storage change, negative = inhibition is on record?
A: inconclusive: 24.4%

Q: For COc1ccc(CCNC(=O)CCCn2c(SCC#N)nc3ccccc3c2=O)cc1OC, which lipid storage change, negative = inhibition is on record?
A: inconclusive: 16.8%

Q: For COc1ccc(/C=N/NC(=O)c2nc(-c3ccccc3)cc(-c3ccccc3)n2)cc1O, which lipid storage change, negative = inhibition is on record?
A: inconclusive: -87.2%

Q: For O=C(COC(=O)CCC(=O)c1cccs1)NC1CCCCC1, which Potency is on record?
A: inconclusive: 16.4 µM [activator, partial curve]

Q: For CCn1c(=O)cc(SCC(=O)N2CCN(C)CC2)c2ccccc21, which Potency is on record?
A: inconclusive: 1.46 µM [activator, partial curve, poor fit]

Q: For COC(=O)c1c(C(=O)c2ccc(Br)cc2)n(C)c2ccccc12, which lipid storage change, negative = inhibition is on record?
A: inconclusive: 31.3%

Q: For Cc1ccc(NC(=O)CCOc2ccccc2)cc1S(=O)(=O)Nc1ccccc1Cl, which lipid storage change, negative = inhibition is on record?
A: inconclusive: -16.1%

Q: For Cc1ccc(-n2c(C)cc(C)c(C#N)c2=O)cc1, which Potency is on record?
A: inconclusive: 1.64 µM [falling, full curve]

Q: Which lipid storage change, negative = inhibition does the source give for Cc1cccc(NC(=O)CSc2nsc(SCC(=O)Nc3cccc(C)c3)c2C#N)c1 here?
A: inconclusive: -24%

Q: With O=C(c1cccc(Cl)c1)N1CCC2(CC1)NCCc1[nH]cnc12 as the compound, how does the lipid storage change, negative = inhibition read?
A: inconclusive: 38.2%

Q: For CCOC(=O)C1CCN(C(=O)CSc2nnc(-c3ccco3)n2-c2ccccc2)CC1, which lipid storage change, negative = inhibition is on record?
A: inconclusive: -3.89%

Q: Which lipid storage change, negative = inhibition does the source give for Cc1cc(C)cc(NS(=O)(=O)c2cc(C(=O)NCc3ccccn3)ccc2Cl)c1 here?
A: inconclusive: 24.8%

Q: For CCc1nn(CCCC(=O)N2CCC(C)CC2)c(=O)c2cc3occc3n12, which Potency is on record?
A: active: 4.11 µM
